Reference: patent US20090005294A1 (CENTRO DE INGENIERIA GENETICA Y BIOTECNOLOGIA, published 2009)
No constants are given. Whether binding was seen depends on the method and setting. Some binding calls cover weakened binding; strength is not graded here.

Amino acid sequences for entries named in this document (tags omitted). A change or cut given only in a name is not applied to a line headed by its entry.
UniProt P03129: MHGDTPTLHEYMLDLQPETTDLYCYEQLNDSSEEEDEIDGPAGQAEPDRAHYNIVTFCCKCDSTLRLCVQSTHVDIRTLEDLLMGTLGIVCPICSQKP

Target: synthetic 28-38 region of HPV-16 E7 oncoprotein (HPV-16) (UniProt P03129)
Assay: phage library screening; peptide on P8 of filamentous phage, biotinylated target on a solid surface, immunodetection with anti-P8 antibody

binding	Binder
binds	CRNCTVIQFSC (cyclic; two cysteines engaged in a disulfide (S-S) bridge) [cyclic peptide (f) …]
binds	CKQSYLHHLLC (cyclic; two cysteines engaged in a disulfide (S-S) bridge) [cyclic peptide (i) …]
binds	CQSYHELLLQC (cyclic; two cysteines engaged in a disulfide (S-S) bridge) [cyclic peptide (k) …]
binds	CPLVSLRDHSC (cyclic; two cysteines engaged in a disulfide (S-S) bridge) [cyclic peptide (h) …]

Continued, binder first:

Binder	binding
CSSCQNSPALC (cyclic; two cysteines engaged in a disulfide (S-S) bridge) [cyclic peptide (b) …]	binds
CAKQRTDPGYC (cyclic; two cysteines engaged in a disulfide (S-S) bridge) [cyclic peptide (d) …]	binds
CFQPLTPLCRC (cyclic; two cysteines engaged in a disulfide (S-S) bridge) [cyclic peptide (j) …]	binds
CQIPQRTATRC (cyclic; two cysteines engaged in a disulfide (S-S) bridge) [cyclic peptide (c) …]	binds
CWMSPRHLGTC (cyclic; two cysteines engaged in a disulfide (S-S) bridge) [cyclic peptide (e) …]	binds
CSVRQGPVQKC (cyclic; two cysteines engaged in a disulfide (S-S) bridge) [cyclic peptide (a) …]	binds
CHYIAGTVQGC (cyclic; two cysteines engaged in a disulfide (S-S) bridge) [cyclic peptide (g) …]	binds
